Measured values reported in the supplement of paper PMC12067093, “Discovery and optimisation of a covalent ligand for TRIM25 and its application to targeted protein ubiquitination” (Chemical Science, 2025).
The other results are listed elsewhere or left out.

Amino acid sequences for entries named in this document (tags omitted). A change or cut given only in a name is not applied to a line headed by its entry.
UniProt Q9BRR6: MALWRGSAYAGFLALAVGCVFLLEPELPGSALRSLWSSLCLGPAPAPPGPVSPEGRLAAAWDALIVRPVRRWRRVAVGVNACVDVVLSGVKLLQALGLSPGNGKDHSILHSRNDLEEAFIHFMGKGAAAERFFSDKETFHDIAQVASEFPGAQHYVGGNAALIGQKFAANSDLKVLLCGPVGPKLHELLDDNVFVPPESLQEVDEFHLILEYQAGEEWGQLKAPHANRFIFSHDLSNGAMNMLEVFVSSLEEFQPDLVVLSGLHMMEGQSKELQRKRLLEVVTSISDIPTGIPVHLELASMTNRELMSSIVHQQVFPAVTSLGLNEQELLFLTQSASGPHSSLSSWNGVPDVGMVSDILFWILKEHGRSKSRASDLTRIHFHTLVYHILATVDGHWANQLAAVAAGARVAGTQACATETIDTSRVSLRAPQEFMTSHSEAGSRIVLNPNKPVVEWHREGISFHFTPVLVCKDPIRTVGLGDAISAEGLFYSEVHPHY
UniProt P12814, whole entry, looked up: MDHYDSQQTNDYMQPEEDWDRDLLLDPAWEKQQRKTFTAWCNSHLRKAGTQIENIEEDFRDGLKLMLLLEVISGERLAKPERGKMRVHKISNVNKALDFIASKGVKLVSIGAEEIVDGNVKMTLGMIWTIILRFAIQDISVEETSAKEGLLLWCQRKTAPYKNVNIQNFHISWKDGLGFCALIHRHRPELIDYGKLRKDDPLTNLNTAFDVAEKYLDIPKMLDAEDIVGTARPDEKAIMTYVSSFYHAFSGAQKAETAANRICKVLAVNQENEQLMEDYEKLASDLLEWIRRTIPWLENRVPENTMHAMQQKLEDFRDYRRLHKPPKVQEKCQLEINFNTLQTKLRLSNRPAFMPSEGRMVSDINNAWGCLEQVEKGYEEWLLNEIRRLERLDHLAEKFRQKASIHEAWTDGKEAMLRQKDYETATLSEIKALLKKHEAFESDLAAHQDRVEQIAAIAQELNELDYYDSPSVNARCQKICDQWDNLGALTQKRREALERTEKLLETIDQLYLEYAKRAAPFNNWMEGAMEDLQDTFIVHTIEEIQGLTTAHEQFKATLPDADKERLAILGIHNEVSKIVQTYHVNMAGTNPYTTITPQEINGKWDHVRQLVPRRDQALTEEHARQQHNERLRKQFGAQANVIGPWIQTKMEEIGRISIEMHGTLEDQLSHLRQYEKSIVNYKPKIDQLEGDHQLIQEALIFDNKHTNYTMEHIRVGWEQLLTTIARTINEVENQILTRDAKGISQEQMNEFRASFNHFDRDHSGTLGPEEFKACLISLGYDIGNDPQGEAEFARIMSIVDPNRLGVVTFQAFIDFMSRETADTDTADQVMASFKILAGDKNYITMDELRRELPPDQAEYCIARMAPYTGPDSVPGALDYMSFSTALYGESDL
UniProt P51825: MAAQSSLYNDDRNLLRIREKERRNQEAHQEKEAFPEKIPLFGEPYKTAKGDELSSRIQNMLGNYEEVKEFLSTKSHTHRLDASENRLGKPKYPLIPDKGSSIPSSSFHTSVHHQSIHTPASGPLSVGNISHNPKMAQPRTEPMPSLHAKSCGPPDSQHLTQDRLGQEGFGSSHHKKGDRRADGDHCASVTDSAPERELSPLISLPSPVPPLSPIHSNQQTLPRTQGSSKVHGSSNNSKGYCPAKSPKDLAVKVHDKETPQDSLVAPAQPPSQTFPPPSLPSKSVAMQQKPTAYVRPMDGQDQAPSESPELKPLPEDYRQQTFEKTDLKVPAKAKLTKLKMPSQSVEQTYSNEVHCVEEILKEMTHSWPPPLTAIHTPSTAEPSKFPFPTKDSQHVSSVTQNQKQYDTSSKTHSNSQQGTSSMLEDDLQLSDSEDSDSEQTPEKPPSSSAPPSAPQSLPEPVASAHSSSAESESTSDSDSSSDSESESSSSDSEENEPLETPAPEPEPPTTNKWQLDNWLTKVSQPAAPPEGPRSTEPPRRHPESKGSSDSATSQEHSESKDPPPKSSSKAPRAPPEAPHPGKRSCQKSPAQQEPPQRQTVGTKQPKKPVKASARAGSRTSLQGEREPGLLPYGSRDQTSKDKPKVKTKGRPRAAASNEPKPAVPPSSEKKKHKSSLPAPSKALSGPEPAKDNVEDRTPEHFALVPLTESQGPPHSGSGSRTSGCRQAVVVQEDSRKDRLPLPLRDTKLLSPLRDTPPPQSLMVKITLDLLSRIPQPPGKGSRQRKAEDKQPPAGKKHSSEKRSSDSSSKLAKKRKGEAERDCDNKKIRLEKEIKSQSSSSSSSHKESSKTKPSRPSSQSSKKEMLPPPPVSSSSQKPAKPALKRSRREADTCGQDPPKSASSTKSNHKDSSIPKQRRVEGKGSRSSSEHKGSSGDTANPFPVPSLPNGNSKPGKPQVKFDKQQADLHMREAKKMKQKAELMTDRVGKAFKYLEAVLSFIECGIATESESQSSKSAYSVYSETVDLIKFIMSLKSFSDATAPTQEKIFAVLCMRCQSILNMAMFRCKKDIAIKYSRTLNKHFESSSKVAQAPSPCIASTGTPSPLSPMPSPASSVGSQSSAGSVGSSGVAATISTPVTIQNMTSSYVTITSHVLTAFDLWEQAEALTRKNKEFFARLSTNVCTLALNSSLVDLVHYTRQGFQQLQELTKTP
UniProt Q15067: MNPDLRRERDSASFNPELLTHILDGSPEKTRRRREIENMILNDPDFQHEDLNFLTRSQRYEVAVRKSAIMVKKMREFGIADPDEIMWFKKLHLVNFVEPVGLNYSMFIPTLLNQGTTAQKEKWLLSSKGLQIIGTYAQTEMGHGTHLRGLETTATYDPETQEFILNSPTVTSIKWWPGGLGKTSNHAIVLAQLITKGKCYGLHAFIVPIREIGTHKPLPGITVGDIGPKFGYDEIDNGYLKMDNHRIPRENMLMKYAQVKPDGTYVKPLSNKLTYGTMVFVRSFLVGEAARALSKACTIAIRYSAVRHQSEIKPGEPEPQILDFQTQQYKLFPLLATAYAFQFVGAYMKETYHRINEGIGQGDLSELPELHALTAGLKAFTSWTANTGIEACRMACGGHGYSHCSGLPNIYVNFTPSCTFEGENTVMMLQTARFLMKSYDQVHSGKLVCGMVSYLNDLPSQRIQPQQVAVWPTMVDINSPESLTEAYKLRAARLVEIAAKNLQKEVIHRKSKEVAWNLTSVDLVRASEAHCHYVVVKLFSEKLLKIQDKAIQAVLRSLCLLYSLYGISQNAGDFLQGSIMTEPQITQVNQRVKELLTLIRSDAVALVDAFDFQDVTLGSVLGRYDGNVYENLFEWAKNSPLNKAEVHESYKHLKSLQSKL
UniProt P30566: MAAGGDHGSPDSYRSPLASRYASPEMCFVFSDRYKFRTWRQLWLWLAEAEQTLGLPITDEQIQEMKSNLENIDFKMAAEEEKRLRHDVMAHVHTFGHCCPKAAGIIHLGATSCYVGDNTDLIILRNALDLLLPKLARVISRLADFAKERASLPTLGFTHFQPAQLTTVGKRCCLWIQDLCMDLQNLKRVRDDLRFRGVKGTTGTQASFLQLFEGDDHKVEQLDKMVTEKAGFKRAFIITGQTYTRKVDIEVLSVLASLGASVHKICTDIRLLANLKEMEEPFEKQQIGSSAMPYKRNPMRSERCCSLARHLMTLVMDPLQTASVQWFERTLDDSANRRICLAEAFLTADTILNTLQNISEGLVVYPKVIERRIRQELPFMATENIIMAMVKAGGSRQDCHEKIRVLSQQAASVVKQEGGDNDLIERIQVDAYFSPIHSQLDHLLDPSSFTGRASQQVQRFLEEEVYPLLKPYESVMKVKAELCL
UniProt O95573: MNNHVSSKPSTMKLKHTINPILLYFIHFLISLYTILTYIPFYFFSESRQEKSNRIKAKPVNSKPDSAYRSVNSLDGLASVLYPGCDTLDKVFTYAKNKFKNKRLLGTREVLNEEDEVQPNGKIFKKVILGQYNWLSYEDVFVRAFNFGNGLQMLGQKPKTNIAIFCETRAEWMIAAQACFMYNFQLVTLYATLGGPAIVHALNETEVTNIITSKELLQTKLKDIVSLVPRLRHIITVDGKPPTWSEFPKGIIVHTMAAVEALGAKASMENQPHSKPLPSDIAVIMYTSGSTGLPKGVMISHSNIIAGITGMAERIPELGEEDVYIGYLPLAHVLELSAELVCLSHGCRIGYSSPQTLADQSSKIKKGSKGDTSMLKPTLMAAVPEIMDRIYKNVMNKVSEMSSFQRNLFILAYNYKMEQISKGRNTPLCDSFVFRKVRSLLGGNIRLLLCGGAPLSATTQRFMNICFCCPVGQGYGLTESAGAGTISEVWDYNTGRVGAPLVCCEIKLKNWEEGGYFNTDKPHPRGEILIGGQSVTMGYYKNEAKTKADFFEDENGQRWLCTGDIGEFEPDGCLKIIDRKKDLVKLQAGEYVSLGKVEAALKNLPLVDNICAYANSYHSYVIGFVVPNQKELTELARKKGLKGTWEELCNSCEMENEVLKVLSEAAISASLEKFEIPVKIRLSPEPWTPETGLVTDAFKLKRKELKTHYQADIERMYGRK
UniProt P33121: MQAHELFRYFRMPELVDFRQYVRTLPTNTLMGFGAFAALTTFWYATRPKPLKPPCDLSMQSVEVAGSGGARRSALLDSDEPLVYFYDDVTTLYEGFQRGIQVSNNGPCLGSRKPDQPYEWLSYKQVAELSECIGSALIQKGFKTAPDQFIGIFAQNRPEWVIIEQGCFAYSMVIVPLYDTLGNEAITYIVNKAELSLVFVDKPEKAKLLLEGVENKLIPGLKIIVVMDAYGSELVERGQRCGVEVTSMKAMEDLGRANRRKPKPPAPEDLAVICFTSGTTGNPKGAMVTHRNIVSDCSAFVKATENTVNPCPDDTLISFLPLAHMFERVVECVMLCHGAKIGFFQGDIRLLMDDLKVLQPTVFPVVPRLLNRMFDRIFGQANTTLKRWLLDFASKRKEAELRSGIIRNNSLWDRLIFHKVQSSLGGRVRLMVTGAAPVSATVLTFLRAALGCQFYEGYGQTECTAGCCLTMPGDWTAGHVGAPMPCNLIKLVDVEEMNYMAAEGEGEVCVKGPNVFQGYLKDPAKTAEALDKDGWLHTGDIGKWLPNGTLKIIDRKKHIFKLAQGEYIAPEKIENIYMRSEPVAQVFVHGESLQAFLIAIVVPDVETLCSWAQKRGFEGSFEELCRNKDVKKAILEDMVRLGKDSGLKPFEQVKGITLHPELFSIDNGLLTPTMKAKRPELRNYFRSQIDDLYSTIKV
UniProt P20933: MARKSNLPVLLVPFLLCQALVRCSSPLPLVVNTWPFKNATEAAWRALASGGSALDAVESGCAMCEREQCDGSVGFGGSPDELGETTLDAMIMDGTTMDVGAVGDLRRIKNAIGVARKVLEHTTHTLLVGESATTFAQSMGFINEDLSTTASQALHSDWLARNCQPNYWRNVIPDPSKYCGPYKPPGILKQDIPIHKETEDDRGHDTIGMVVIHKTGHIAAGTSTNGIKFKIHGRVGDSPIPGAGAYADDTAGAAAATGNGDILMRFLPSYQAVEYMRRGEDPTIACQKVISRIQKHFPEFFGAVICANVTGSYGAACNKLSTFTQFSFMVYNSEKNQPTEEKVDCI
UniProt P11117: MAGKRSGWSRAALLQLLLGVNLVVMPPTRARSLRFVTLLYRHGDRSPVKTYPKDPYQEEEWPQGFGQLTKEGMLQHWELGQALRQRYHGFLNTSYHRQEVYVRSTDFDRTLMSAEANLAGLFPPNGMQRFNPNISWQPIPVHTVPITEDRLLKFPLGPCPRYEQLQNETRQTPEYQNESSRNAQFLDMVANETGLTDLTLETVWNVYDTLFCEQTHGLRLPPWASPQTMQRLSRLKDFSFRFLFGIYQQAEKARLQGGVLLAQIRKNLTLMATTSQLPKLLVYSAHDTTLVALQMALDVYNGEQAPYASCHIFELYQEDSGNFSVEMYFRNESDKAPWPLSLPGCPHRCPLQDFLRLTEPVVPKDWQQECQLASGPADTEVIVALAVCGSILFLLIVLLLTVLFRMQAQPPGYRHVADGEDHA
UniProt Q9NZ32, whole entry, looked up: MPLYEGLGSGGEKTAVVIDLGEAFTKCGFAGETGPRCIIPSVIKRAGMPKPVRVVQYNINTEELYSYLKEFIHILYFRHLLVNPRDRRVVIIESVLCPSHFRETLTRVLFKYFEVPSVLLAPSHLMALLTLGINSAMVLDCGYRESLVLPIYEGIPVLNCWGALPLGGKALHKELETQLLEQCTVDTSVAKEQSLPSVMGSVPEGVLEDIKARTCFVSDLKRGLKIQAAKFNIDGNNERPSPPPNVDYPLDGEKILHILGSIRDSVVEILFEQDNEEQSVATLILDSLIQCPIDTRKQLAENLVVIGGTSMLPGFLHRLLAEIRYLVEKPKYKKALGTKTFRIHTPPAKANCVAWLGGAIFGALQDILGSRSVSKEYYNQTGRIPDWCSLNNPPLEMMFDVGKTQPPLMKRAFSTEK
UniProt P24666: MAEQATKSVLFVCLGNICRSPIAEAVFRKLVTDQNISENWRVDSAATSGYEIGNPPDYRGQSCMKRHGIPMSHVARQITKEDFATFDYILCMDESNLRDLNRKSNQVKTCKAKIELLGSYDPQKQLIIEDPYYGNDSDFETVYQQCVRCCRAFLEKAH

Compound: CC1Cc2ccccc2N1C(=O)C1CCCN(C1)C(=O)CCl (mixture of isomers) [TRIM25 ligand 11 (diastereomer mixture)]
Assay: probe-labelled cysteine peptide fold change vs DMSO (competition) (log2 fold change); higher = less target engagement (more negative = stronger competition)
Details: THP-1, incubation time: 4 h
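Also: competitive chemoproteomic profiling in live THP-1 cells with an iodoacetamide desthiobiotin (IA-DTB) probe, comparing probe-labelled peptide intensities in compound-treated cells against DMSO-treated controls.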

Target	probe-labelled cysteine peptide fold change (10 µM)	probe-labelled cysteine peptide fold change (50 µM)
AGAP3_Q96P47_263_KQQLAIGPCK (UniProt Q96P47)	-0.14	-0.334
ADAM17_P78536_333_VCLAHLFTYQDFDMGTLGLAYVGSPR (UniProt P78536)	-0.053	0.0473
ACSS3_Q9H6R3_285_AQSHDCVPVLSEHPLYILYTSGTTGLPK (UniProt Q9H6R3)	0.0567	0.122
ACTR3B_Q9P1U1_408_DYEEYGPSICR (UniProt Q9P1U1)	0.0826	0.189
ADPGK_Q9BRR6_415_VAGTQACATETIDTSR (UniProt Q9BRR6)	0.074	-0.0384
ADNP_Q9H2P0_226_CLFMPK (UniProt Q9H2P0)	0.25	0.0186
ADRM1_Q16186_121_TDQDEEHCRK (UniProt Q16186)	-0.0322	0.00409
ACSS2_Q9NR19_554_KFPGYYVTGDGCQR (UniProt Q9NR19)	0.0828	-0.0704
AGL_P35573_172_SCYSLANQLELNPDFSRPNRK (UniProt P35573)	0.0913	0.196
ACOT7_O00154_288_KGCVITISGR (UniProt O00154)	-0.124	-0.0334
ADGRL2_O95490_807_TMMGYWSTQGCK (UniProt O95490)	0.0591	0.0285
ADARB1_P78563_393_GLALNDCHAEIISR (UniProt P78563)	-0.0161	-0.117
AFG1L_Q8WV93_72_ALAVCHGPLDHYDFLIK (UniProt Q8WV93)	0.129	0.114
ACTN1_P12814_774_ACLISLGYDIGNDPQGEAEFAR (UniProt P12814)	0.388	0.22
AFF4_Q9UHB7_338_EMTHSWPPPLTAIHTPCK (UniProt Q9UHB7)	-0.174	-0.19
ADD1_P35611_253_CGLLPISPEALSLGEVAYHDYHGILVDEEEK (UniProt P35611)	0.0917	0.0709
ACSL4_O60488_157_NTIAIFCETR (UniProt O60488)	0.484	0.477
ADD2_P35612_210_GSSCFPVDTTGFCLHSAIYAARPDVR (UniProt P35612)	-0.0728	-0.106
AGK_Q53H12_72_KATVFLNPAACK (UniProt Q53H12)	-0.221	-0.136
ACTN1_P12814_476+480_CQKICDQWDNLGALTQKRR (UniProt P12814)	0.175	-0.0015
ADIPOR1_Q96A54_54_AEEEQTCPVPQEEEEEVR (UniProt Q96A54)	0.147	-0.188

Target	probe-labelled cysteine peptide fold change (10 µM)	probe-labelled cysteine peptide fold change (50 µM)
AFF1_P51825_1181_LSTNVCTLALNSSLVDLVHYTR (UniProt P51825)	-0.154	0.00908
AFG3L2_Q9Y4W6_313_DVAGCEEAK (UniProt Q9Y4W6)	0.206	0.157
ADK_P55263_106_AATFFGCIGIDK (UniProt P55263)	-0.0146	-0.0159
ADAT1_Q9BUB4_263_CVPGEAGDSGKPGAAFHQVGLLR (UniProt Q9BUB4)	0.0425	-0.0347
ACSS1_Q9NUB1_422_TLGSVGEPINCEAWEWLHR (UniProt Q9NUB1)	-0.333	-0.348
ACOX1_Q15067_392_AFTSWTANTGIEACR (UniProt Q15067)	-0.0794	0.0502
AFF1_P51825_355_MPSQSVEQTYSNEVHCVEEILK (UniProt P51825)	-0.0231	-0.406
ADH5_P11766_170+174_VCLLGCGISTGYGAAVNTAK (UniProt P11766)	0.222	0.114
ADSL_P30566_27_YASPEMCFVFSDR (UniProt P30566)	0.163	0.0596
ADNP_Q9H2P0_112_ILLNCPYCTFNADKK (UniProt Q9H2P0)	-0.057	-0.0144
AGK_Q53H12_408_LQFFCDPR (UniProt Q53H12)	-0.282	0.135
ADSL_P30566_98+99_HDVMAHVHTFGHCCPK (UniProt P30566)	-0.126	-0.119
ACOT8_O14734_302_QDGVLAVTCAQEGVIR (UniProt O14734)	-0.0537	0.0698
ACSF2_Q96CM8_122_AASGLLSIGLCK (UniProt Q96CM8)	0.0703	-0.094
ACSL3_O95573_652_GTWEELCNSCEMENEVLK (UniProt O95573)	-0.0606	-0.0955
ACOT7_O00154_288_GCVITISGR (UniProt O00154)	-0.0136	0.137
ACSL1_P33121_311_ATENTVNPCPDDTLISFLPLAHMFER (UniProt P33121)	-0.0683	-0.177
ACTR8_Q9H981_179_WTNTSHHPEYLVGEEALYVNPLDCYNIHWPIR (UniProt Q9H981)	0.349	0.0831
AGA_P20933_64_ALASGGSALDAVESGCAMCER (UniProt P20933)	-0.018	0.0586
ACOX1_Q15067_199_CYGLHAFIVPIR (UniProt Q15067)	-0.166	-0.0114
ACP2_P11117_159_FPLGPCPR (UniProt P11117)	-0.0242	-0.0275

Target	probe-labelled cysteine peptide fold change (10 µM)	probe-labelled cysteine peptide fold change (50 µM)
ACTR10_Q9NZ32_215_TCFVSDLK (UniProt Q9NZ32)	0.0471	0.0893
ADNP_Q9H2P0_79_TKPFCCSACPFSSK (UniProt Q9H2P0)	-0.0632	0.0404
ACTR3_P61158_394_YAVWFGGSMLASTPEFYQVCHTKK (UniProt P61158)	-0.388	-0.251
ADSL_P30566_266_ICTDIR (UniProt P30566)	0.199	0.262
ACSF3_Q4G176_139_KHPAAQLEYVICDSQSSVVLASQEYLELLSPVVR (UniProt Q4G176)	0.145	-0.0517
ACTR3_P61158_408_DYEEIGPSICR (UniProt P61158)	-0.00209	0.067
ADCY9_O60503_1333_AIEKDDCDETGIEEANELTK (UniProt O60503)	-0.326	-0.107
ADNP2_Q6IQ32_74_TKPYCCGLCK (UniProt Q6IQ32)	-0.0867	0.0505
ADSL_P30566_173_CCLWIQDLCMDLQNLK (UniProt P30566)	0.303	0.139
ACOX3_O15254_220_LCVPGDQCHGLHPFIVQIRDPK (UniProt O15254)	-0.102	-0.0601
AGBL1_Q96MI9_809_CSLSGEDLNR (UniProt Q96MI9)	-0.0554	-0.297
ADAR_P55265_125_GVDCLSSHFQELSIYQDQEQR (UniProt P55265)	-0.09	-0.0943
ACTR3_P61158_8_LPACVVDCGTGYTK (UniProt P61158)	-0.0511	-0.00177
ACSL3_O95573_503_VGAPLVCCEIK (UniProt O95573)	0.154	0.0586
ACSL3_O95573_85_SVNSLDGLASVLYPGCDTLDK (UniProt O95573)	0.108	0.0746
ACTN4_O43707_793_ACLISLGYDVENDRQGEAEFNR (UniProt O43707)	-0.00621	0.202
ACOT7_O00154_100_CVAALAR (UniProt O00154)	0.00793	0.0177
ADNP_Q9H2P0_452_ICTICNELFPENVYSVHFEK (UniProt Q9H2P0)	0.0857	-0.204
ACTR2_P61160_221_LCYVGYNIEQEQK (UniProt P61160)	0.19	0.0318
ADH5_P11766_97+100_AGDTVIPLYIPQCGECK (UniProt P11766)	0.0312	-0.0722
ACP2_P11117_349_CPLQDFLR (UniProt P11117)	-0.125	-0.079

Shown with bars between the fields: entries from further up
Target | probe-labelled cysteine peptide fold change (10 µM) | probe-labelled cysteine peptide fold change (50 µM)
ADD2_P35612_210_GSSCFPVDTTGFCLHSAIYAARPDVR (UniProt P35612) | -0.0728 | -0.106
AGK_Q53H12_72_KATVFLNPAACK (UniProt Q53H12) | -0.221 | -0.136
ACTN1_P12814_476+480_CQKICDQWDNLGALTQKRR (UniProt P12814) | 0.175 | -0.0015
ADIPOR1_Q96A54_54_AEEEQTCPVPQEEEEEVR (UniProt Q96A54) | 0.147 | -0.188
AFF1_P51825_1181_LSTNVCTLALNSSLVDLVHYTR (UniProt P51825) | -0.154 | 0.00908
AFG3L2_Q9Y4W6_313_DVAGCEEAK (UniProt Q9Y4W6) | 0.206 | 0.157

(next part)

Target	probe-labelled cysteine peptide fold change (10 µM)	probe-labelled cysteine peptide fold change (50 µM)
AGGF1_Q8N302_494_CDPYVLEHGDEVK (UniProt Q8N302)	0.0808	0.0697
ADPGK_Q9BRR6_470_EGISFHFTPVLVCK (UniProt Q9BRR6)	0.195	-0.0414
AGA_P20933_179_YCGPYKPPGILK (UniProt P20933)	-0.0327	-0.0937
ACSF2_Q96CM8_553_MGEEICACIR (UniProt Q96CM8)	-0.0479	-0.134
AFF1_P51825_892_EADTCGQDPPK (UniProt P51825)	-0.1	-0.0158
ACP1_P24666_146_QLIIEDPYYGNDSDFETVYQQCVR (UniProt P24666)	0.102	0.0531
ACTR10_Q9NZ32_388_IPDWCSLNNPPLEMMFDVGK (UniProt Q9NZ32)	0.247	-0.0923
ADAP1_O75689_101_VPSFYYRPTPSDCQLLR (UniProt O75689)	-0.014	-0.025
ADD2_P35612_224_CIIHLHTPATAAVSAMK (UniProt P35612)	-0.0204	-0.168
ADPGK_Q9BRR6_470_EGISFHFTPVLVCKDPIR (UniProt Q9BRR6)	-0.273	-0.117
ADGRL2_O95490_42_RELSCEGYSIDLR (UniProt O95490)	0.0113	0.0942
ACP1_P24666_91_EDFATFDYILCMDESNLR (UniProt P24666)	-0.151	-0.0255
ACTN1_P12814_370_MVSDINNAWGCLEQVEK (UniProt P12814)	-0.191	-0.201
ADAM15_Q13444_409_ALLDGMGSCLFER (UniProt Q13444)	-0.145	0.146
ADRM1_Q16186_121_TDQDEEHCR (UniProt Q16186)	-0.0674	-0.0473
ADAR_P55265_490_CSPYKK (UniProt P55265)	-0.0154	-0.08
ACSL5_Q9ULC5_121_AEYLGSCLLHK (UniProt Q9ULC5)	0.0446	-0.00844
ACSL1_P33121_336_VVECVMLCHGAK (UniProt P33121)	0.0143	0.203
ADAR_P55265_649_FQYCVAVGAQTFPSVSAPSKK (UniProt P55265)	-0.0879	-0.0992
